These are yes or no findings as the source states them, for the method shown. A result given as binding can be weak or reduced; the word gives no strength.

Experimental findings from paper PMC9574505 are described below.

For the assay, the target named is N-terminus of LhcB2 precursor protein (amino acid residues 1-117) (Arabidopsis thaliana). Briefly: two-hybrid; Matchmaker Gold Yeast Two-Hybrid System (Clontech); AtFtsH12 domains in the prey vector pGADT7, LhcB2 N-terminus in the bait vector pGBKT7; double dropout SD (-Leu -Trp), then quadruple dropout SD (-Ade -His -Leu -Trp), with 20 mg/l X-alpha-Gal for high stringency.

B1: loop domain of AtFtsH12 (amino acid residues 175-432) (domain or fragment, UniProt Q9SAJ3 175-432)
chain: QAPRVERERRELTESFMEALIPEPSPGNIEKFKRNMWRKATPKGLKLKRFIEAPDGTLVHDSSYVGENAWDDDLETTEGSLKKIIGRNARIQTEAKKKLSQDLGVSGEIGDSVGNWRERLATWKEMLEREKLSEQLNSSAAKYVVEFDMKEVEKSLREDVIGRTSETEGTRALWISKRWWRYRPKLPYTYFLQKLDSSEVAAVVFTEDLKRLYVTMKEGFPLEYIVDIPLDPYLFETICNAGVEVDLLQKRQIHYFMK
With B1, the binding result is listed as “binds”.
